These are yes or no findings as the source states them, for the method shown. A result given as binding can be weak or reduced; the word gives no strength. For some assays here: Tags and fused reporters may be left off the sequences shown. For some assays here: Binding seen in cells or lysates may run through a third protein.
What was measured:
[1] = target: T1, Bombyx ecdysone receptor EcR-B1, CytoTrap two-hybrid fusion (Bombyx mori (silkworm)) (UniProt P49881); test: two-hybrid; CytoTrap system (Stratagene) in yeast cdc25H; bait fused to human Sos, prey fused to a myristoylation signal under the GAL1 promoter; growth at restrictive temperature on galactose medium; more colonies mean a stronger association
T1 sequence: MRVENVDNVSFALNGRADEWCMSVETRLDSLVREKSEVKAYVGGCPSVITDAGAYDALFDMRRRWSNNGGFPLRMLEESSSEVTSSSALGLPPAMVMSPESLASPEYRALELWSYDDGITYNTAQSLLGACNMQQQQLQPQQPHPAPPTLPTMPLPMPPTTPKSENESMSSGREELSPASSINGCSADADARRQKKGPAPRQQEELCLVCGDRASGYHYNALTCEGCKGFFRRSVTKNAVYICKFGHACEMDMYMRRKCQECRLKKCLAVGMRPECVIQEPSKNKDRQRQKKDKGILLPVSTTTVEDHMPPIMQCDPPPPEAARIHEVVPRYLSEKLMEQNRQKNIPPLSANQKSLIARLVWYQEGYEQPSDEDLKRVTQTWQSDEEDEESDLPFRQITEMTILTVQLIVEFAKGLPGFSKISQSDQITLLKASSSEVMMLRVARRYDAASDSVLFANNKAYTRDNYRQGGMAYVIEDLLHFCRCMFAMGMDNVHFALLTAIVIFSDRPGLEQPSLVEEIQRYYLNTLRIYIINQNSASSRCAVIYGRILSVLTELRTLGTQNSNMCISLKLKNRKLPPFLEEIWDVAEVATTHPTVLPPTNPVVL

[2] = target: T2, Bombyx ultraspiracle USP1, CytoTrap two-hybrid fusion (Bombyx mori (silkworm)) (UniProt P49700); test: as above
T2 sequence: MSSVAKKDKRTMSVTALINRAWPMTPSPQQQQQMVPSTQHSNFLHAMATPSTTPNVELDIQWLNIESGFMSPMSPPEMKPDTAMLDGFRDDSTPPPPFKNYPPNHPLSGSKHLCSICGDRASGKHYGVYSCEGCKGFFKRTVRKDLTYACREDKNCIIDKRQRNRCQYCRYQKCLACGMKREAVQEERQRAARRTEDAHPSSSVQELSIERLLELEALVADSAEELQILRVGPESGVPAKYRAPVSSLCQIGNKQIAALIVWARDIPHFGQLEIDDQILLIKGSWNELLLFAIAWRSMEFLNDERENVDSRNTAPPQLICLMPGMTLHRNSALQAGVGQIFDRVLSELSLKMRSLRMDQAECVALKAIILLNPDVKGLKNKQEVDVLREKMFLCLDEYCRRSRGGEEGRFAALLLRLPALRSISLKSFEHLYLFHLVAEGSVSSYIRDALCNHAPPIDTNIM

[3] = target: Bombyx MET2 (Methoprene-tolerant 2), CytoTrap two-hybrid fusion (Bombyx mori (silkworm)) (UniProt B0LL82); test: as above
[4] = target: T3, FLAG-USP (Bombyx ultraspiracle) (Bombyx mori (silkworm)) (UniProt P49700); test: co-IP; HA-EcR, FLAG-USP and V5-Met1 co-transfected into human HEK 293 cells, with or without 1 uM 20E for 6 hr; NP-40 lysis buffer; FLAG, V5 or cMyc antibody or IgG for 4 hr, protein G overnight at 4°C; Western blot
T3 sequence: T2 sequence

[5] = target: T4, HA-EcR (Bombyx EcR-B1) (Bombyx mori (silkworm)) (UniProt P49881); test: as above
T4 sequence: T1 sequence

[6] = target: T3, FLAG-USP (Bombyx ultraspiracle) (Bombyx mori (silkworm)); test: native gel or EMSA; HA-EcR, FLAG-USP, V5-Met1 and cMyc-Met2 co-transfected into HEK 293 cells; nuclear extract (15 ug) bound to biotin-labeled EcRE, 5% nondenaturing PAGE; supershift by V5 or cMyc antibody
[7] = target: T4, HA-EcR (Bombyx EcR-B1) (Bombyx mori (silkworm)); test: as above

| binding [1] | binding [2] | binding [4] | binding [5] | binding [6] | binding [7] | Substance | binding [3] |
| --- | --- | --- | --- | --- | --- | --- | --- |
| binds | binds |  |  |  |  | Bombyx MET1 (Methoprene-tolerant 1), CytoTrap two-hybrid fusion (from UniProt B0LL81) | binds weakly |
| binds | binds |  |  |  |  | Bombyx MET2 (Methoprene-tolerant 2), CytoTrap two-hybrid fusion (from UniProt B0LL82) |  |
|  |  | binds | binds | binds | binds | V5-MET1 (Bombyx MET1) |  |
|  |  |  |  | binds | binds | cMyc-MET2 (Bombyx MET2) |  |

— publication PMC3531340
